Source: PubChem BioAssay AID1259405 (NCATS, 2018)

Purpose: 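Knock-downs that lift recombinant protein yield in hamster ovary cells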 (primary screen)
Cells: Chinese hamster CHO-K1 ovary cells with stable secreted eGFP expression
Reagent: single siRNA against mouse genes, 0.8 pmol siRNA per well (2 µl of 400 nM stock)
Duration: 3 days
Detection: 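Per-well intracellular GFP measured by laser scanning cytometry, plus viability from ATP luminescence, each relative to plate median of non-targeting control wells, in %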
Reading the numbers: GFP, % of control: higher = more GFP per well, higher productivity; viability (ATP), % of control: higher = more viable cells (more ATP)
Active means: 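Called active when intracellular GFP, relative to negative control, is at or above 120%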
Shown is a random part of about 50,000 reagents tested. Over the whole deposit, about 4,000 (8%) are marked active. 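Mouse siRNA library applied to hamster cells; one well for each siRNA.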 Entries without a mark were called inactive. The numbers tell different reagents against one gene apart.

| target gene | reagent no. | GFP, % of control | viability (ATP), % of control |
| --- | --- | --- | --- |
| Ap4e1 (adaptor-related protein complex AP-4, epsilon 1) | 1 | 88.8 | 31.8 |
| Ap4e1 (adaptor-related protein complex AP-4, epsilon 1) | 2 | 66.4 | 30.5 |
| Ap4e1 (adaptor-related protein complex AP-4, epsilon 1) | 3 | 155 (active) | 125 |
| Krt87 (keratin 87) | 1 | 103 | 64.5 |
| Krt87 (keratin 87) | 2 | 84 | 50 |
| Scarf2 (scavenger receptor class F, member 2) | 1 | 59.8 | 88.3 |
| Scarf2 (scavenger receptor class F, member 2) | 2 | 44.7 | 64.2 |
| Scarf2 (scavenger receptor class F, member 2) | 3 | 50.7 | 67.1 |
| Ubl5 (ubiquitin-like 5) | 1 | 46.5 | 76.5 |
| Ubl5 (ubiquitin-like 5) | 2 | 50.5 | 52.8 |
| Ubl5 (ubiquitin-like 5) | 3 | 46.8 | 47.4 |
| Dhrsx (dehydrogenase/reductase X linked) | 1 | 108 | 91.7 |
| Dhrsx (dehydrogenase/reductase X linked) | 2 | 77.3 | 79.2 |
| Dhrsx (dehydrogenase/reductase X linked) | 3 | 68 | 75.4 |
| Pigl (phosphatidylinositol glycan anchor biosynthesis, class L) | 1 | 50.2 | 51.9 |
| Pigl (phosphatidylinositol glycan anchor biosynthesis, class L) | 2 | 131 (active) | 109 |
| Cort (cortistatin) | 1 | 66.2 | 59.8 |
| Cort (cortistatin) | 2 | 70.7 | 54 |
| Cort (cortistatin) | 3 | 38.7 | 43 |
| Mthfs (5, 10-methenyltetrahydrofolate synthetase) | 1 | 93.4 | 80.7 |
| Mthfs (5, 10-methenyltetrahydrofolate synthetase) | 2 | 74.4 | 83.8 |
| Mthfs (5, 10-methenyltetrahydrofolate synthetase) | 3 | 77.1 | 94.6 |
| Slfn10 (schlafen 10) | 1 | 107 | 85.2 |
| Slfn10 (schlafen 10) | 2 | 69.9 | 80.2 |
| Slfn10 (schlafen 10) | 3 | 55 | 91.3 |
| Il3 (interleukin 3) | 1 | 67.7 | 54.2 |
| Il3 (interleukin 3) | 2 | 53.3 | 69.8 |
| Il3 (interleukin 3) | 3 | 65.5 | 64.6 |

Taken from above:
For “viability (ATP), % of control”, Ap4e1 (adaptor-related protein complex AP-4, epsilon 1) #3 has 125 (active)
Entry for Ubl5 (ubiquitin-like 5) #1 in “viability (ATP), % of control”: 76.5
Value for Scarf2 (scavenger receptor class F, member 2) #2 in “viability (ATP), % of control”: 64.2
Entry of Ap4e1 (adaptor-related protein complex AP-4, epsilon 1) #2 in “viability (ATP), % of control”: 30.5
Scarf2 (scavenger receptor class F, member 2) #1, viability (ATP), % of control: 88.3
Entry of Krt87 (keratin 87) #1 under “viability (ATP), % of control”: 64.5

Continued:
| target gene | reagent no. | GFP, % of control | viability (ATP), % of control |
| --- | --- | --- | --- |
| Mgl2 | 1 | 68.5 | 76.6 |
| Mgl2 | 2 | 92.6 | 86.3 |
| Mgl2 | 3 | 39.7 | 47.5 |
| Oxct2a (3-oxoacid CoA transferase 2A) | 1 | 112 | 64.4 |
| Oxct2a (3-oxoacid CoA transferase 2A) | 2 | 83.9 | 85.4 |
| Oxct2a (3-oxoacid CoA transferase 2A) | 3 | 54.5 | 52.3 |
| Gmeb1 (glucocorticoid modulatory element binding protein 1) | 1 | 75.2 | 89.6 |
| Gmeb1 (glucocorticoid modulatory element binding protein 1) | 2 | 62.8 | 47.8 |
| Gmeb1 (glucocorticoid modulatory element binding protein 1) | 3 | 69.1 | 76.3 |
| A430033K04Rik (RIKEN cDNA A430033K04 gene) | 1 | 78.4 | 68.7 |
| A430033K04Rik (RIKEN cDNA A430033K04 gene) | 2 | 55.5 | 54.1 |
| A430033K04Rik (RIKEN cDNA A430033K04 gene) | 3 | 90.7 | 86.7 |
| Gimap3 (GTPase, IMAP family member 3) | 1 | 62.6 | 81.2 |
| Gimap3 (GTPase, IMAP family member 3) | 2 | 33.3 | 61.2 |
| Gimap3 (GTPase, IMAP family member 3) | 3 | 33.9 | 32.4 |
| Socs7 (suppressor of cytokine signaling 7) | 1 | 73.8 | 77.5 |
| Socs7 (suppressor of cytokine signaling 7) | 2 | 148 (active) | 60 |
| Socs7 (suppressor of cytokine signaling 7) | 3 | 68 | 54 |
| Unk (unkempt family zinc finger) | 1 | 71.4 | 73.3 |
| Unk (unkempt family zinc finger) | 2 | 86.5 | 66.1 |
| Unk (unkempt family zinc finger) | 3 | 50.6 | 103 |
| Gykl1 (glycerol kinase-like 1) | 1 | 88.1 | 93.1 |
| Gykl1 (glycerol kinase-like 1) | 2 | 47.2 | 53.8 |
| Gykl1 (glycerol kinase-like 1) | 3 | 90.7 | 75.4 |
| Ampd2 (adenosine monophosphate deaminase 2) | 1 | 99.8 | 90.1 |
| Ampd2 (adenosine monophosphate deaminase 2) | 2 | 63.6 | 74.2 |
| Ampd2 (adenosine monophosphate deaminase 2) | 3 | 126 (active) | 85.3 |
| Anxa7 (annexin A7) | 1 | 170 (active) | 145 |
| Anxa7 (annexin A7) | 2 | 58.6 | 56.2 |
| Anxa7 (annexin A7) | 3 | 75.2 | 74.3 |
| Anxa7 (annexin A7) | 4 | 103 | 76.3 |
| Anxa7 (annexin A7) | 5 | 95.9 | 84 |
| Anxa7 (annexin A7) | 6 | 120 | 85.3 |
